Measurements reported in PubChem BioAssay AID1259425 (University of Nebraska Medical Center, 2018).

- Screen: 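Seek colon cancer weak points whose silencing resembles KSR1 loss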 (primary screen)
- Cell system: HCT116 human colon cancer cells
- Knock-down reagent: siRNA pool against human genes, 50 nM siRNA
- Measured: 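mRNA of six signature genes measured together by branched-DNA assay after 50 nM siRNA pool, blank removed, divided by geometric mean of two housekeeping genes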
- Reading the numbers: BNIP3L mRNA: higher = more BNIP3L transcript after knockdown
The whole screen tested about 14,000 reagents; below is an unselected part. Further read-outs or replicates are left out here. Not stated in the record: the time to read-out.

target gene	PubChem SID	BNIP3L mRNA, set 1
LAMTOR1 (GeneID 55004)	SID364000632	0.0825
GSN (GeneID 2934)	SID363991513	0.113
NPFFR2 (GeneID 10886)	SID363995835	0.164
SMAP1 (GeneID 60682)	SID364002231	0.0519
H3-3B (GeneID 3021)	SID363996240	0.121
MRPL17 (GeneID 63875)	SID364002297	0.174
IMMP2L (GeneID 83943)	SID364004044	0.419
COG2 (GeneID 22796)	SID363997999	0.122
REG1A (GeneID 5967)	SID363994064	0.102
COLGALT1 (GeneID 79709)	SID364002950	0.115
ABCA13 (GeneID 154664)	SID364004738	0.172
FBXL9P (GeneID 26231)	SID363998107	0.112
MORC1 (GeneID 27136)	SID363998846	0.167
CASP7 (GeneID 840)	SID363992512	0.0449
EHD2 (GeneID 30846)	SID363998973	0.051
HMGN4 (GeneID 10473)	SID363997169	0.0483
STXBP6 (GeneID 29091)	SID363998635	0.119
RPS25 (GeneID 6230)	SID363992325	0.201
ABO (GeneID 28)	SID364001717	0.108
HILPDA (GeneID 29923)	SID363998442	0.0896
URI1 (GeneID 8725)	SID363994859	0.0643
IL27RA (GeneID 9466)	SID363995795	0.138
PDCD6 (GeneID 10016)	SID363998356	0.0952
PCK2 (GeneID 5106)	SID363995534	0.207
TUBA1A (GeneID 7846)	SID363996862	0.085
SMAP2 (GeneID 64744)	SID364002510	0.125
CHCHD7 (GeneID 79145)	SID364002776	0.2
CLDN2 (GeneID 9075)	SID364001651	0.179
CD1B (GeneID 910)	SID363992983	0.134
ATP6V0A4 (GeneID 50617)	SID364001738	0.0564
MARCHF7 (GeneID 64844)	SID364002570	0.0896
MARS1 (GeneID 4141)	SID363995929	0.0598
CPB2 (GeneID 1361)	SID363993085	0.175
MED23 (GeneID 9439)	SID363995783	0.142
CHMP3 (GeneID 51652)	SID363999852	0.0589
RPSA (GeneID 3921)	SID363993493	0.0481
THUMPD3 (GeneID 25917)	SID363999504	0.146
SLC25A6 (GeneID 293)	SID363992861	0.304
SORCS1 (GeneID 114815)	SID364004413	0.0736
SLC1A3 (GeneID 6507)	SID363995176	0.104
CYBC1 (GeneID 79415)	SID364002834	0.186
UGT2B7 (GeneID 7364)	SID363992371	0.093
ITGB1 (GeneID 3688)	SID363993412	0.184
MFSD11 (GeneID 79157)	SID364002785	0.107
IRX3 (GeneID 79191)	SID364002807	0.123
PEX13 (GeneID 5194)	SID363993786	0.0664
BIRC8 (GeneID 112401)	SID364004360	0.106
SYBU (GeneID 55638)	SID364000527	0.064
BMP4 (GeneID 652)	SID363992490	0.0899
OLIG2 (GeneID 10215)	SID363996684	0.206
